Results are given in words; binding and its absence hold for the method and conditions named. In cells and extracts the contact can be indirect. Some binding calls cover weakened binding; strength is not graded here. Blank lines part the entries; values can stand above or below the binder they belong to.
Tests used:
[1] = molecular target: T1, inwardly rectifying K+ channel KCNJ10 (Kir4.1) (mouse (endogenous in mouse DRG)) (UniProt Q9JM63); test: co-IP; mouse DRG lysates in harvest buffer (10 mM HEPES, 100 mM NaCl, 5 mM EDTA, 1% Triton X-100, pH 7.4); immunoprecipitated with anti-GPR37L1, anti-Kir4.1/KCNJ10 or normal rabbit IgG, protein A magnetic beads; Western blot
T1 sequence: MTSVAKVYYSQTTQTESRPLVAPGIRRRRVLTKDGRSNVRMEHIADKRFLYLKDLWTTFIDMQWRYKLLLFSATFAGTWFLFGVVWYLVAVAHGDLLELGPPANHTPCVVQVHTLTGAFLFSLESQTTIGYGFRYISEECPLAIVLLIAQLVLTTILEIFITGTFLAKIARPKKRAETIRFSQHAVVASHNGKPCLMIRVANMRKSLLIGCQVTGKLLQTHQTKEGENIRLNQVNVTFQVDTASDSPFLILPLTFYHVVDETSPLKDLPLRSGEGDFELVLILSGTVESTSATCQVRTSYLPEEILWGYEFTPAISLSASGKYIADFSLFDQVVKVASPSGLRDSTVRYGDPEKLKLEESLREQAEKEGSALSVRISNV

[2] = molecular target: T2, G protein-coupled receptor 37-like 1 (GPR37L1) (mouse (endogenous in mouse DRG)) (UniProt Q99JG2); test: as above
T2 sequence: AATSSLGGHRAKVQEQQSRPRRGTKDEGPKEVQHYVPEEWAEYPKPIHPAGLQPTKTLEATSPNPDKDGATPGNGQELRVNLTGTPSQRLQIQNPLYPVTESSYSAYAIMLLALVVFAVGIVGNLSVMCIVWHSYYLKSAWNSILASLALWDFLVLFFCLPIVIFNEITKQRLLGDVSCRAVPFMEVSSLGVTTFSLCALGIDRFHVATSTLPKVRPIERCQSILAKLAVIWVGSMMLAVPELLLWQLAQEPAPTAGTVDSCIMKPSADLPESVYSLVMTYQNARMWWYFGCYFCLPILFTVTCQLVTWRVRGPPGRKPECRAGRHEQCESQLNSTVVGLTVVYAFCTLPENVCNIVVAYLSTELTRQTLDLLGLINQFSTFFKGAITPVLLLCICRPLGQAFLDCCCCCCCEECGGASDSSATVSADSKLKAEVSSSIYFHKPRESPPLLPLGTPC

binding [1]: binds
B1: G protein-coupled receptor 37-like 1 (GPR37L1) (receptor, UniProt Q99JG2 25-481)
chain: T2 sequence

binding [2]: binds
B2: inwardly rectifying K+ channel KCNJ10 (Kir4.1) (protein, UniProt Q9JM63 1-379)
chain: T1 sequence

From paper PMC11060744
